Data as given in publication doi:10.1101/2021.09.06.459192.
These are yes or no findings as the source states them, for the method shown. Binding seen in cells or lysates may run through a third protein. These calls come from enrichment with a bait or labelling near it, and not all partners need be listed.

Amino acid sequences for entries named in this document (tags omitted).
UniProt P42945: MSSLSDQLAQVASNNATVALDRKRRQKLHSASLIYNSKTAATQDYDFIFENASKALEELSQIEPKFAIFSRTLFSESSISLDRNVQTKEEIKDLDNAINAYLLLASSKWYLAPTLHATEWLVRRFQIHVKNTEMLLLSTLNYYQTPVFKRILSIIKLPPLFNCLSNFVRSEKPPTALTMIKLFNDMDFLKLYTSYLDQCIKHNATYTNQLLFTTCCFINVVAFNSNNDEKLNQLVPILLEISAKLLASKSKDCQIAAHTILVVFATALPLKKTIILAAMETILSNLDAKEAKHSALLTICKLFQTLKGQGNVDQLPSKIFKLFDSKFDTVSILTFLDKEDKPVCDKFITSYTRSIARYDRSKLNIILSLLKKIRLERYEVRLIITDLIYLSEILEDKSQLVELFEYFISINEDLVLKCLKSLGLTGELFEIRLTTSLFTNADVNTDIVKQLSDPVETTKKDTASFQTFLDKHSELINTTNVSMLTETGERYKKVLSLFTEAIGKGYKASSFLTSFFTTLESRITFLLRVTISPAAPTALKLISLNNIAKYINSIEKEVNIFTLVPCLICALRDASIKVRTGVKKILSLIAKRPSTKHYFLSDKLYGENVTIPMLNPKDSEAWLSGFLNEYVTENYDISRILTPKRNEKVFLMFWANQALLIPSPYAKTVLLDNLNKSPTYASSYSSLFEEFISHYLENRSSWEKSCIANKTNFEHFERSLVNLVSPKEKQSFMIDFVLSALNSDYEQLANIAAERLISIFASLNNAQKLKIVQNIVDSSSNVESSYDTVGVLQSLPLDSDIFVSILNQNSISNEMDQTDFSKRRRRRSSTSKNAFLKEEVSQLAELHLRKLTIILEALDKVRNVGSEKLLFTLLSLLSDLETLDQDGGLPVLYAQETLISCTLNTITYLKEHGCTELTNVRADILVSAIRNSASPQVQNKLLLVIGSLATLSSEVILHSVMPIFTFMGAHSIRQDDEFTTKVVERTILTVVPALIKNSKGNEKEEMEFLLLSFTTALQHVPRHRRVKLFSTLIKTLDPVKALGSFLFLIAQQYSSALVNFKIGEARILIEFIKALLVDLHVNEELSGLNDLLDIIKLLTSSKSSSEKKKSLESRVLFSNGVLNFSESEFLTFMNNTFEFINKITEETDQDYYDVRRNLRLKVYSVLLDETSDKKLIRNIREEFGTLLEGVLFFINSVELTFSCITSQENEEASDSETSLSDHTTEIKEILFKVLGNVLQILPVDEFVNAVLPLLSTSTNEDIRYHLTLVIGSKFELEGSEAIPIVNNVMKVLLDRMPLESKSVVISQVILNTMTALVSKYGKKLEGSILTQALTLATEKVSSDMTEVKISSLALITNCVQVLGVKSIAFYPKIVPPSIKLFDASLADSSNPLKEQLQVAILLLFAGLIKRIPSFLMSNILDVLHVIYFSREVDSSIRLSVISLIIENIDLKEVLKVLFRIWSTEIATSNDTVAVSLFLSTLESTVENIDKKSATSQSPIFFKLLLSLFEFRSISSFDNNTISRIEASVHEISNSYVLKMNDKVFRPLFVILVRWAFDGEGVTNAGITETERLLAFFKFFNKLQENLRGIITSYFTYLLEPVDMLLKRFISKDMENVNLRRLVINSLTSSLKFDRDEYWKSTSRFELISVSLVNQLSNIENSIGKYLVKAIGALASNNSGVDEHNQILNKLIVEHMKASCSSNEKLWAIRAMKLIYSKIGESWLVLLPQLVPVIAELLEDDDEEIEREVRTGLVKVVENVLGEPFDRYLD

B1: Nop14 (protein, UniProt Q99207 1-810)
chain: MAGSQLKNLKAALKARGLTGQTNVKSKNKKNSKRQAKEYDREEKKKAIAEIREEFNPFEIKAARNKRRDGLPSKTADRIAVGKPGISKQIGEEQRKRAFEARKMMKNKRGGVIDKRFGERDKLLTEEEKMLERFTRERQSQSKRNANLFNLEDDEDDGDMFGDGLTHLGQSLSLEDELANDEEDFLASKRFNEDDAELQQPQRKKTKAEVMKEVIAKSKFYKQERQKAQGIMEDQIDNLDDNFEDVMSELMMTQPKKNPMEPKTDLDKEYDIKVKELQLDKRAAPSDRTKTEEEKNAEAEEKKRELEQQRLDRMNGMIELEEGEERGVEDLDDGFWENEEDYEDDNDGIADSDDDIKFEDQGRDEGFSQILKKKNISISCPRTHDALLDQVKKLDLDDHPKIVKNIIKAYQPKLAEGNKEKLGKFTAVLLRHIIFLSNQNYLKNVQSFKRTQNALISILKSLSEKYNRELSEECRDYINEMQARYKKNHFDALSNGDLVFFSIIGILFSTSDQYHLVITPALILMSQFLEQIKFNSLKRIAFGAVLVRIVSQYQRISKRYIPEVVYFFQKILLTFIVEKENQEKPLDFENIRLDSYELGLPLDVDFTKKRSTIIPLHTLSTMDTEAHPVDQCVSVLLNVMESLDATISTVWKSLPAFNEIILPIQQLLSAYTSKYSDFEKPRNILNKVEKLTKFTEHIPLALQNHKPVSIPTHAPKYEENFNPDKKSYDPDRTRSEINKMKAQLKKERKFTMKEIRKDAKFEARQRIEEKNKESSDYHAKMAHIVNTINTEEGAEKNKYERERKLRGGKK
B2: Noc4 (protein, UniProt Q06512 1-552)
chain: MVLLISEIKDIAKRLTAAGDRKQYNSIIKLINELVIPENVTQLEEDETEKNLRFLVMSLFQIFRKLFSRGDLTLPSSKKSTLEKEQFVNWCRKVYEAFKTKLLAIISDIPFETSLGLDSLDVYLQLAELESTHFASEKGAPFFPNKTFRKLIIALWSSNMGEIEDVKSSGASENLIIVEFTEKYYTKFADIQYYFQSEFNQLLEDPAYQDLLLKNVGKWLALVNHDKHCSSVDADLEIFVPNPPQAIENESKFKSNFEKNWLSLLNGQLSLQQYKSILLILHKRIIPHFHTPTKLMDFLTDSYNLQSSNKNAGVVPILALNGLFELMKRFNLEYPNFYMKLYQIINPDLMHVKYRARFFRLMDVFLSSTHLSAHLVASFIKKLARLTLESPPSAIVTVIPFIYNLIRKHPNCMIMLHNPAFISNPFQTPDQVANLKTLKENYVDPFDVHESDPELTHALDSSLWELASLMEHYHPNVATLAKIFAQPFKKLSYNMEDFLDWNYDSLLNAESSRKLKTLPTLEFEAFTNVFDNEDGDSEASSQGNVYLPGVAW
B3: Rrt14 (protein, UniProt P40470 1-206)
chain: MSSSLSQTSKYQATSVVNGLLSNLLPGVPKIRANNGKTSVNNGSKAQLIDRNLKKRVQLQNRDVHKIKKKCKLVKKKKVKKHKLDKEQLEQLAKHQVLKKHQHEGTLTDHERKYLNKLIKRNSQNLRSWDLEEEVRDELEDIQQSILKDTVSTANTDRSKRRRFKRKQFKEDIKESDFVKDHRYPGLTPGLAPVGLSDEEDSSEED
B4: Rrp36 (in yeast cells) (protein, UniProt Q12481 1-300)
chain: MSYYFKNLKPDLNSDVEEDDGNLLESIMANKSKREIDEQESSDDELKTLSFGSLKKAETVIDEEDFKDTKPVHKKPITTTYREESFDEDEDSEDQSDEDAGFFEEDSEDETHHGQKVPKKKSKHAPVEQSSKKRVPRVRNIPGLEIPRNKRSNLYQDIRFDKSTGKALDSSIIRKRYQFLDEYREKEIDELQKLLQERKFLSKIDQGEREEMEQRLKSMKSRLQSMKNKDLEREILKEYENDMNKNNNTRYHLKKSEKRKVVQKWKFDHMKAKQREKVMERKRKKRLGKEFKQFEFHNRR

Molecular target: Utp10-TAP (S. cerevisiae) (UniProt P42945)
Assay: affinity purification with mass spectrometry

binding, binds:
B1
B2
B3
B4
